Reference: US20260184702A1, “SYNTHESIS, PHARMACOLOGY AND USE OF NEW WATER-SOLUBLE AND SELECTIVE FMS-LIKE TYROSINE KINASE3 (FLT3) INHIBITORS” (Universität Regensburg, priority 2022, published 2026)

Test system: MV4-11 cells (FLT3-ITD positive)
Test: Cell Titer-Glo proliferation assay with MV4-11 cells
Assay type: cell-based
Conditions: Homo sapiens, MV4-11, 72 h
Protocol: MV4-11 cells are human acute myeloid leukemia cell lines that carry a FLT3-ITD mutation (American Type Culture Collection, ATCC, Manassas, VA, United States). Cells were cultured in IMDM medium plus 100 μg/mL penicillin, 100 μg/mL streptomycin and 10% FBS. All cells were kept at 37° C., 5% CO2.
Cell proliferation was assessed with Cell Titer-Glo® Viability Assay (Promega; Madison, WI, United States) according to the manufacturer's instructions. […]

CN[C@@H]1C[C@H]2O[C@@](C)([C@@H]1OC)n1c3ccccc3c3c4c(c5c6ccccc6n2c5c31)C(=O)NC4 [Staurosporine, reference compound]
IC50: 0.06 nM
